# Experimental data published in paper PMC6053418.
# Chains of the proteins cited; added tags and fusions are not shown. Chains listed by the source or under a name are the forms on record and can include a tag or linker.
# CS (CTC1-STN1) (Homo sapiens), one chain, as listed by the source, chain 2 of 2: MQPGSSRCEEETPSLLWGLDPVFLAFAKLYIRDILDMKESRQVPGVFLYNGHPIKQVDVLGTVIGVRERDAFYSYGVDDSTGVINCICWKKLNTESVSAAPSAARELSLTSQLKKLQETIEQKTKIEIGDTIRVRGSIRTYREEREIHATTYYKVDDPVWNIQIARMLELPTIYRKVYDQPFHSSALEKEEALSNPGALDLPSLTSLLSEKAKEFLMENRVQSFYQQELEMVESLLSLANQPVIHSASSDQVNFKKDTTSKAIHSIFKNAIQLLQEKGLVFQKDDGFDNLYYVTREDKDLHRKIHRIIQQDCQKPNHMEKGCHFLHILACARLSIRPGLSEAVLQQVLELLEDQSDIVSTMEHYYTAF
# CST (CTC1-STN1-TEN1) (Homo sapiens), one chain, as listed by the source, chain 3 of 3: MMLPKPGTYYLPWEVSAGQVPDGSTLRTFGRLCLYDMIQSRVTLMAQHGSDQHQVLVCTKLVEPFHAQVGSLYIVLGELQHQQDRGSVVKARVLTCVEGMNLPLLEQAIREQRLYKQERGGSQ
# CS (CTC1-STN1) (Homo sapiens), one chain, as listed by the source, chain 1 of 2: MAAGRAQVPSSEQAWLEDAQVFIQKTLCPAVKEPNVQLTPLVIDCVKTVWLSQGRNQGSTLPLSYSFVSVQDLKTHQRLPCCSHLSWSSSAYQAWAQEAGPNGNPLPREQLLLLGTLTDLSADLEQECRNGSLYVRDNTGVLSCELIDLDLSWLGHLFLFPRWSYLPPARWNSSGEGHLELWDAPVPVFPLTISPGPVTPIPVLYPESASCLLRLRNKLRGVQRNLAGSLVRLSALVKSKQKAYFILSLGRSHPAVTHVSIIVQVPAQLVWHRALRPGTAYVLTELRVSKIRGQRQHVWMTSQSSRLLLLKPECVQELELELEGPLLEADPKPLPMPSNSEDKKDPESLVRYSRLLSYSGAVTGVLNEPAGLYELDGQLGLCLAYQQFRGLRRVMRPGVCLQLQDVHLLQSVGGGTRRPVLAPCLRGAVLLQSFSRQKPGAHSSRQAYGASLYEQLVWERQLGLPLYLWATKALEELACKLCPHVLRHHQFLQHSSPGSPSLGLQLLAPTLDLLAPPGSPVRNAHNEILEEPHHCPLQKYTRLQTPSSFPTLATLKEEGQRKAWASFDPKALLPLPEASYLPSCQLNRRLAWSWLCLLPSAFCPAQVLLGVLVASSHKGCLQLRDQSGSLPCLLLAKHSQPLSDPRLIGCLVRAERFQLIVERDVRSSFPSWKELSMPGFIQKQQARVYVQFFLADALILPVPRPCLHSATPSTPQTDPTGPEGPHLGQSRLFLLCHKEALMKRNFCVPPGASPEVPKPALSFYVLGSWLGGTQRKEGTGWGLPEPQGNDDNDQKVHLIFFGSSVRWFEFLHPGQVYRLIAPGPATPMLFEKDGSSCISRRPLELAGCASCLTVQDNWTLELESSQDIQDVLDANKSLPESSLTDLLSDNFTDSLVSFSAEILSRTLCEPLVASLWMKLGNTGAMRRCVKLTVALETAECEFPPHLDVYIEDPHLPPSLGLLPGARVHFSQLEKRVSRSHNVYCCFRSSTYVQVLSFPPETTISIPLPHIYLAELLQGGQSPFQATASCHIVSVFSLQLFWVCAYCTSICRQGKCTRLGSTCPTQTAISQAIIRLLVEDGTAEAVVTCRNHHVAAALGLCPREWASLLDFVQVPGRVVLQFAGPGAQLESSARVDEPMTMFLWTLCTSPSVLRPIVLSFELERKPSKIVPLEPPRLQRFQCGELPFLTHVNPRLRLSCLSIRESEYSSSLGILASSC
# Tests used:
# Assay in all cases: EMSA
# [1] = test system: CS (CTC1-STN1) (Homo sapiens); details: EMSA: 25 mM Tris-HCl pH 8.0, 100 mM NaCl, 1 mM DTT, 0.1 nM DNA, 30 min RT (Kd(app): 0.01 nM DNA, 18 h, 4 °C), recombinant protein, protein details: FLAG-CTC1, FLAG-STN1, label: 32P, single-stranded DNA
# [2] = test system: CST (CTC1-STN1-TEN1) (Homo sapiens); details: affinity very low; EMSA: 25 mM Tris-HCl pH 8.0, 100 mM NaCl, 1 mM DTT; 0.1 nM DNA, 30 min RT (Kd(app): 0.01 nM DNA, 18 h, 4 °C); recombinant protein; protein details: FLAG-CTC1, FLAG-STN1, untagged TEN1; label: 32P; single-stranded DNA
# [3] = test system: ST (STN1-TEN1) (Homo sapiens); details: 0.1 nM DNA, EMSA: 25 mM Tris-HCl pH 8.0, 100 mM NaCl, 1 mM DTT, 30 min RT (Kd(app): 0.01 nM DNA, 18 h, 4 °C), recombinant protein, protein details: FLAG-STN1, untagged TEN1, label: 32P, single-stranded DNA
Sequence,binding result ([1]; affinity very low),binding result [2],binding result [3],binding result ([1]; binds very poorly)
AGCGTATCCGTTCAGTTG [NonTel-18],binds more weakly,binds more weakly,–,–
AGCGTATCCGTTCAGTTGAGCGTATCCGTTCAGTTGAGCGTATCCGTT [NonTel-48],–,–,binds more weakly,–
GCGTACTCAGTGACTCAGATCGAC [NonTel-26],–,–,–,binds more weakly
GGTTAGGGTTAGGGTTAGGGTTAGGGTTAGGGTTAG [Tel-36],–,–,binds more weakly,–
TTAGGGTTAG [Tel10],binds more weakly,binds more weakly,–,–

# Construct, isoform or probe ends are uncertain for at least one entry. The comparison behind a weaker result is the experiment's own reference, which may not be listed here. At least one verdict rests on a figure or table, not on a statement of the authors.
